Test results from patent US12318488B2, “Solid dosage form production” (University of Central Lancashire, priority 2018, dated 2025).
Some results were stated once for a whole list of compounds, not compound by compound. At least one structure is not confirmed: it was looked up by name or label, or the drawing left a doubt.

Assay: Dissolution studies, USP type II apparatus, simulated gastric fluid
Format: physicochemical
Conditions: individual 3D printed tablets; gastric medium; paddle 50 rpm, 900 mL

SMILES	Time within which the tablet dissolved (in vitro release)
CCOC(=O)C1=C(COCCN)NC(C)=C(C(=O)OC)C1c1ccccc1Cl (stereo not shown) [Amlodipine besylate, amlodipine besylate]	≤ 45 min
CC1Cc2ccccc2N1NC(=O)c1ccc(Cl)c(S(N)(=O)=O)c1 (stereo not shown) [Indapamide, indapamide]	≤ 45 min
NCCCC[C@H](N[C@@H](CCc1ccccc1)C(=O)O)C(=O)N1CCC[C@H]1C(=O)O [Lisinopril dihydrate]	≤ 45 min
CC(C)c1nc(N(C)S(C)(=O)=O)nc(-c2ccc(F)cc2)c1/C=C/[C@@H](O)C[C@@H](O)CC(=O)[O-].CC(C)c1nc(N(C)S(C)(=O)=O)nc(-c2ccc(F)cc2)c1/C=C/[C@@H](O)C[C@@H](O)CC(=O)[O-].[Ca+2] [Rosuvastatin calcium, rosuvastatin calcium]	≤ 45 min
